{"source": "patent US11221329B2", "about": "“Treatment of neurological and neurodevelopmental diseases and disorders associated with aberrant ion channel expression and activity” (LIEBER INSTITUTE FOR BRAIN DEVELOPMENT, priority 2015, dated 2022)", "tested_on": "AHP currents in EGFP+ cells expressing shCon or shTCF4", "assay": "Whole-cell voltage-clamp recordings of AHP currents with progressive pharmacological blockade", "format": "cell-based, rat", "settings": "apamin 100 nM; shTCF4 and shCon cells, in presence of TEA", "method": "For all experiments, artificial cerebrospinal fluid (ACSF) was oxygenated (95% O2 and 5% CO2) and contained in (in mM): 125 NaCl, 25 NaHCO3, 1.25 NaH2PO4, 3 KCl, 25 dextrose, 1 MgCl2, and 2 CaCl2, pH 7.3. Patch pipettes were fabricated from borosilicate glass (N51A, King Precision Glass, Inc.) to a resistance of 2-5 MΩ. For current- and voltage-clamp measurements, pipettes were filled with (in mM): 125 potassium gluconate, 10 HEPES, 4 Mg-ATP, 0.3 Na-GTP, 0.1 EGTA, 10 phosophocreatine, 0.05% biocytin, adjusted to pH 7.3 with KOH. For all experiments GABAa receptors were blocked with SR-95531 (Gabazine, 5 μM, Ascent Scientific). For AHP current experiments, synaptic currents were blocked with DL-2-amino-5-phosphopentanoic acid (D,L-AP5, 100 μM, Ascent Scientific), 2,3, dioxo-6-nitro-1,2,3,4, tetrahydrobenzo-quinoxaline-7-sulfonamide (NBQX, 10 μM) and SR-95531 (Gabazine, 5 μM, Ascent Scientific). Ca2+-activated currents were blocked with Tetraethylammonium chloride (TEA, 1 mM, Abcam), apamin (100 nM, Abcam), and carbachol (10 μM, Abcam). Current signals were recorded with either a Multiclamp 700A (Molecular Devices) or with an Axopatch 200B amplifier (Molecular Devices) and were filtered at 2 kHz using a built-in Bessel filter and digitized at 10 kHz.", "note": "At least one compound was matched to its structure with a doubt left."}
{"compound": "CC(C)C[C@@H]1NC(=O)[C@H](C)NC(=O)[C@H]([C@@H](C)O)NC(=O)[C@H](CCC(=O)O)NC(=O)[C@@H]2CCCN2C(=O)[C@H](C)NC(=O)[C@H](CCCCN)NC(=O)[C@@H]2CSSC[C@@H](C(=O)N[C@@H](CCC(N)=O)C(=O)N[C@@H](CCC(N)=O)C(=O)N[C@@H](Cc3cnc[nH]3)C(N)=O)NC(=O)[C@H](CCCNC(=N)N)NC(=O)[C@H](CCCNC(=N)N)NC(=O)[C@H](C)NC(=O)[C@H](CSSC[C@H](N)C(=O)N[C@@H](CC(N)=O)C(=O)N2)NC1=O", "note": "[apamin]", "values": [{"measurement": "effect on the mAHP current", "value": "blocked the mAHP in both conditions"}]}
